Experimental data published in PubChem BioAssay AID504444 (National Center for Advancing Translational Sciences (NCATS), 2011).
The whole screen tested about 360,000 compounds, of which about 7,500 (2.1%) were called active. Inconclusive results, whose numbers are uncertain, are shown with a selection of clear calls. Calls follow the shape of the dose curve; as a rule, active = well fitted inhibition curve with a large enough effect; inconclusive = small, poorly fitted or top-dose-only effect, or effect the other way; inactive = flat fitted curve, though single readings scatter. Where the call is inconclusive, the potency comes from a doubtful curve fit.

Assay: Nrf2 qHTS screen for inhibitors; also: nearly all actives have a fitted effect of over 60% in size
Settings: A549 ARE-Fluc reporter, luciferase luminescence, 18-24 h; series mostly up to 46 µM
Method in brief: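 Concentration-response testing used A549 ARE_Fluc cells at 5000 cells/well. Following an 18-24 h compound incubation, viability was read by fluorescence (Ex 405/Em 525) and luciferase output by luminescence.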
Potency is read from the fitted curve at half-maximal effect.

SMILES | Potency
CCN(CC)S(=O)(=O)c1ccc(NC(=O)c2c(-c3ccccc3)noc2C)cc1 | inconclusive: 29.1 µM [falling, single point]
Cc1c(C)n(CCc2c[nH]c3ccccc23)ccc1=O | inconclusive: 18.4 µM [falling, single point]
Cc1ccc(NC(=O)NNC(=O)CN2C(=O)COc3ccccc32)cc1 | inactive
O=C(Nc1sc2c(c1C(=O)O)CCCC2)c1ccc(Cl)cc1 | active: 6.51 µM
COc1cc2c(-c3ccc4[nH]ccc4c3)c(-c3ccc(C#N)cc3)oc(=O)c2cc1OC | inconclusive: 23.1 µM [falling, single point]
Cc1cc2nc(-c3ccc(NC(=O)c4cc5ccccc5o4)cc3)oc2cc1C | inconclusive: 5.17 µM [activator, full curve]
Cc1onc(-c2ccccc2Cl)c1C(=O)OCC(=O)c1ccccc1 | inactive
COC(=O)c1cc(C(=O)Nc2nnc(CC(C)(C)C)s2)cc([N+](=O)[O-])c1 | inconclusive: 29.1 µM [falling, single point]
O=c1cc(-c2ccncc2)oc2ccccc12 | inconclusive: 23.1 µM [falling, partial curve, poor fit]
CC(C)[C@H](NC(N)=O)C(=O)Nc1ccc(Oc2ccccc2)cc1 | inconclusive: 10.3 µM [falling, partial curve]
O=C1CN(c2nc(-c3cccnc3)nc3scc(-c4ccccc4)c23)CCN1 | inconclusive: 0.0731 µM [activator, full curve, poor fit]
O=C(NCCCNC(=O)c1c(Cl)cccc1Cl)c1c(Cl)cccc1Cl | inactive
COc1ccc(Cl)cc1NC(=O)C1CSC(c2ccncc2)=N1 (stereo not drawn) | inconclusive: 32.6 µM [falling, partial curve, poor fit]
COc1ccccc1OCc1nc(C#N)c(NCCCn2ccnc2)o1 | inconclusive: 13 µM [falling, partial curve, poor fit]
O=C(/C=C/Nc1ccc(F)cc1)c1ccc(Br)cc1 | inconclusive: 7.31 µM [activator, single point]
CC(C)Cn1c(-c2ccc(S(=O)(=O)N3CCOCC3)cc2)csc1=Nc1cc(Cl)ccc1Cl | inactive
CCOC(=O)c1cnc(SCc2nc(N)nc(Nc3ccc(F)cc3)n2)nc1N | inconclusive: 1.46 µM [falling, full curve]
O=C(CSc1ccccc1)Nc1ccc(N2CCOCC2)c(F)c1 | inconclusive: 14.6 µM [activator, partial curve, poor fit]
CC(C)(C)CC(=O)NC(=S)NCCc1ccccc1 | inconclusive: 5.8 µM [activator, partial curve, poor fit]
CCC1CN(C(=O)N2CCC(C(=O)Nc3ccccc3OC)CC2)c2ccccc2O1 (stereo not drawn) | inconclusive: 0.92 µM [activator, full curve, poor fit]
O=C(Nc1ccc(N2CCOCC2)c(S(=O)(=O)Nc2ccccc2Cl)c1)c1ccc(=O)[nH]n1 | inactive
COc1cc2oc3cc(C#Cc4ccc(N)cc4)ccc3c(=O)c2cc1OC | active: 16.4 µM

Molecules above that contain a thiophene ring, fused or not, in the order listed:
SMILES | Potency
O=C(Nc1sc2c(c1C(=O)O)CCCC2)c1ccc(Cl)cc1 | active: 6.51 µM
O=C1CN(c2nc(-c3cccnc3)nc3scc(-c4ccccc4)c23)CCN1 | inconclusive: 0.0731 µM [activator, full curve, poor fit]

Further results follow:

SMILES | Potency
CC1(C)COC(c2coc3ccccc3c2=O)OC1 | inconclusive: 25.9 µM [activator, single point]
Cc1ccc(S(=O)(=O)CC(=O)N2CCN(c3ccc([N+](=O)[O-])cc3)CC2)cc1 | inconclusive: 29.1 µM [falling, single point]
Cc1ccc(-c2nnc(NC3CCCC3)s2)cc1 | inconclusive: 1.03 µM [activator, full curve]
NS(=O)(=O)c1ccc(NC(=O)Nc2cccc(Cl)c2)cc1 | inconclusive: 11.6 µM [activator, partial curve, poor fit]
CCOc1ccccc1NC(=O)N(Cc1ccc(C)o1)C1CCN(C(C)=O)CC1 | inactive
COC(=O)C(C)Oc1ccc2c(c1)O/C(=C\c1ccco1)C2=O (stereo not drawn) | inactive
Cc1ccc(-c2cc3ncc4c(n3n2)-c2cc(F)ccc2OC4)cc1 | inconclusive: 1.46 µM [activator, full curve]
CCc1ccc(C(=O)c2cn(CC(=O)Nc3cccc(OC)c3)c3cc4c(cc3c2=O)OCO4)cc1 | inactive
CC(=O)N1CCSc2ccc(S(=O)(=O)Nc3cccc(C)c3)cc21 | inconclusive: 20.6 µM [falling, partial curve]
CCN(CC(=O)Nc1c(Cl)cccc1Cl)C(=O)C1CCN(c2ncnc3sc(C)c(C)c23)CC1 | inconclusive: 8.2 µM [falling, partial curve, poor fit]
COc1ccc2oc(C(=O)Nc3ccccn3)c(C)c2c1 | inconclusive: 1.3 µM [activator, partial curve]
C/C(=N\N(C)C)c1ccc(OCCOc2ccc([N+](=O)[O-])cc2)cc1 | inconclusive: 29.1 µM [falling, single point]
CCOc1ccccc1-n1c(SCC(=O)Nc2ccccc2C(=O)O)nc2ccccc2c1=O | inconclusive: 13 µM [activator, partial curve]
O=C(N=Nc1c(O)[nH]c2ccc(Br)cc12)c1ccccc1-n1cccc1 | inconclusive: 23.1 µM [falling, single point]
CC1CC(C)(C)CC2(C1)NC(=O)N(CC(=O)Nc1c(F)cccc1F)C2=O (stereo not drawn) | inactive
CCc1c(C)sc(NC(=O)C2CCCCC2C(=O)O)c1C(N)=O (stereo not drawn) | inactive
CC1CCc2sc3nc(NCc4ccco4)n4ncnc4c3c2C1 (stereo not drawn) | inconclusive: 20.6 µM [activator, single point]
Cc1cc(Cl)ccc1NC(=O)Cc1ccc(NC(=O)N2CCCCc3ccccc32)cc1 | inconclusive: 29.1 µM [falling, single point]
CC(=O)N1CCN(C(=O)c2ccc3c(c2)OCO3)CC1 | inconclusive: 9.2 µM [activator, partial curve, poor fit]
COC(=O)c1cc(COc2ccc3c(c2)oc(=O)c2ccccc23)c(C)o1 | inconclusive: 20.6 µM [falling, partial curve, poor fit]
O=C(NC1CCCCCC1)C1CCN(c2nc3ccccc3o2)CC1 | inconclusive: 20.6 µM [falling, single point]
